# Source: PubChem BioAssay AID1794844 (National Center for Advancing Translational Sciences (NCATS), 2023)
# Sequences of proteins named here, by UniProt entry; tags and fusion partners are left off. A change or cut given only in a name is not applied to a line headed by its entry.
# UniProt C7C422: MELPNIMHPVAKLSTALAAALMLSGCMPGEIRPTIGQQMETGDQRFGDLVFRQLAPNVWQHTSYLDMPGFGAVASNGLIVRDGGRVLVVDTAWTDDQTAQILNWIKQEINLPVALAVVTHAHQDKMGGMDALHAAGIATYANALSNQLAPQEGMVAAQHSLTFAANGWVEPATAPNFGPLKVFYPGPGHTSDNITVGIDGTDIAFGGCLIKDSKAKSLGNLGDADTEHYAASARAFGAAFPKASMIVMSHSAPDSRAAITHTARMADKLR
# Among all 2,800 compounds or so, fewer than 10 were called active. Another 7% or so got no clear call; they are omitted. Calls follow the shape of the dose curve; as a rule, active = well fitted inhibition curve with a large enough effect; inconclusive = small, poorly fitted or top-dose-only effect; inactive = no such curve, though single readings can be large or run the other way. Some of the results follow.
# Target: Metallo-beta-lactamase type 2 (Klebsiella pneumoniae) (UniProt C7C422)
# Test: qHTS to identify inhibitors of the New Delhi Metallo-beta-lactamase (NDM): Nitrocefin screen against the machine-based learning selections. Also: % of control where 0% means no effect.
# Conditions: NDM-1 enzyme, nitrocefin hydrolysis, absorbance 485 nm; at 57.5 µM (top of the series) unless noted
# Description: Assay Submitter (PI): James Inglese Ph.D., Patricia Dranchak Ph.D., Mahesh Aitha Ph.D. Assay Development and Screening Technology Laboratory (ADST) National Center for Advancing Translational Sciences (NCATS), Rockville, MD National Institute of Health (NIH), Bethesda, Maryland The metallo-beta-lactamases (MBL) are a main antibiotic resistance mechanism evolved by bacteria. There is an urgent clinical need for MBL inhibitors to mitigate this growing threat. To support a machine-based learning study, qHTS has been used to experimentally test inhibitors identified by prediction tools.
# PROTOCOL TABLE (as described by Inglese et al., 2007) SEQUENCE No. (e.g., 1, 2, 3, etc.); […] (e.g., enzyme, Incubation, Reagent, etc.); VALUE; DESCRIPTION Primary Screen 1; NDM-1; 4 uL of 3 nM enzyme [2 nM final] in 50 mM HEPES (pH 7.0), 1 uM […], 0.01% Tween20; Use BioRaptr to dispense into two sets of Aurora black, clear bottom high base 1536-well plates 2; Compounds; 23 nL; Use Pin Tool (Wako) to transfer DMSO control and library compounds in DMSO 3; Incubate; >30 min 4a; Reagent; 2 uL of 50 uM nitrocefin [16.7 uM final] to one set of assay plates 4b; Reagent; 2 uL of 150 uM meropenem [50 uM final] to second set of assay plates 5a; Incubate; 15 min 5b; Incubate; 30 min 6a; Detector; Absorbance at 485 nm (bandwidth = 5 nm, 25 flashes/well) on Tecan Infinity 6b; Detector; Absorbance at 300 nm (bandwidth = 5 nm, 25 flashes/well) on Tecan Infinity NOTES (numbers refer to sequence above) 1; Column 1 of each plate received assay buffer without enzyme and columns 2-48 received enzyme for a final assay concentration of 2 nM. 2; Control plate contained DMSO in columns 1, 2, 3, and 4. 3; Compound interaction with enzyme. 4; Nitrocefin and meropenem substrates were prepared in the same assay buffer as step 1 for a final assay concentration of 16.7 uM and 50 uM, respectively, and added to all wells across respective sets of assay plates. 5; Default reader settings were applied for absorbance read at 485 nm (nitrocefin) or 300 nm (meropenem), bandwidth = 5 nm, 25 flashes/well. References: Inglese J, Shamu CE, Guy RK. 2007. Reporting data from high-throughput screening of small-molecule libraries. Nat Chem Biol. doi:10.1038/nchembio0807-438 Yasgar A, Shinn P, Jadhav A, Auld D, Michael S, Zheng W, Austin CP, Inglese J, Simeonov A. 2008. Compound Management for Quantitative High-Throughput Screening. J Lab Autom 13:79 - 89. doi:10.1016/j.jala.2007.12.004
row,Compound,"activity, negative = inhibition"
1,COCC1CN(C)CC12CCN(Cc1cccc(OC)n1)CC2 (stereo not given),inactive: 0.593% [at 38.4 µM]
2,O=C(O)CSCC(=O)N1C[C@@H]2C[C@H](C1)c1c(-c3ccccc3F)ccc(=O)n1C2,inactive: 0.709%
3,COc1ccc(-c2ccc(=O)n3c2[C@@H]2C[C@@H](CN(C(=O)C(C)(C)C)C2)C3)cc1,inactive: -1.51%
4,CC(C)(C)c1ccc(-c2cn(C[C@H]3CC4CCN3C[C@@H]4C(=O)NCc3ccccc3)nn2)cc1 (stereo not given in full),inactive: -10.8% [at 38.4 µM]
5,COc1ccc(-c2cc([C@H]3CN4CC[C@H]3C[C@@H]4CNC(=O)C(C)(C)C)nc(C)n2)cc1OC,inactive: 3.47% [at 38.4 µM]
6,COc1ccc(CN(Cc2ccc(OC)cc2)C[C@H]2C[C@@H]3CCN2C[C@@H]3c2cc(C3CCCC3)nn2C)cc1,inactive: -15.2% [at 38.4 µM]
7,CN(C)c1ccc(C(=O)NC[C@H]2C[C@@H]3CCN2C[C@@H]3CN(C)c2ccccc2)cc1,inactive: 0.893%
8,C#C[C@H]1CN2CC[C@H]1C[C@@H]2CNCc1ccc(C(F)(F)F)cc1,inactive: 8.9%
9,CSCC(=O)N1C[C@@H]2C[C@H](C1)c1c(-c3ccc(NC(C)=O)cc3)ccc(=O)n1C2,inactive: 3.36%
10,O=C(Nc1nccs1)[C@H]1CN2CCC1C[C@@H]2Cn1cc(CC2CCCCC2)nn1 (stereo not given in full),inactive: -9.51%
11,COc1ccccc1-c1cc([C@H]2CN3CC[C@H]2C[C@@H]3CNC(=O)N2CCOCC2)n(C)n1,inactive: -5.49%
12,CC(C)NC(=O)NC[C@H]1C[C@@H]2CCN1C[C@@H]2CN1CCN(c2ccccn2)CC1,inactive: 1.8%
13,Cc1ccc(S(=O)(=O)NC[C@H]2C[C@@H]3CCN2C[C@@H]3CN2CCCCC2)cc1,inactive: 1.68%
14,COc1cc2c(cc1OCc1ccncc1)NC(=O)C21CCN(Cc2ccccc2O)CC1,inactive: 8.75% [at 38.4 µM]
15,CSCC(=O)Nc1ccc2n(c1=O)C[C@H]1C[C@@H]2CN(C(=O)COc2ccccc2)C1,inactive: -7.98%
16,Cc1cc(NCCc2c[nH]c(=O)[nH]c2=O)n2nccc2n1,inactive: -15.6% [at 38.4 µM]
17,CNc1ncc(C(=O)N2C[C@H]3COc4ccccc4C[C@@]3(C(=O)O)C2)cn1,inactive: -5.63% [at 38.4 µM]
18,CC[C@H]1CN2CC[C@H]1C[C@@H]2CNS(=O)(=O)c1ccc2ccccc2c1,inactive: -8.66%
19,O=C1CO[C@H]2CN(Cc3ccncc3)C[C@H]2N1Cc1ccccc1,inactive: -0.866%
20,CC[C@H]1CN2CC[C@H]1C[C@@H]2COC(=O)Nc1ccc(C(C)(C)C)cc1,inactive: 290%
21,CCC(CC)c1cc([C@H]2CN3CC[C@H]2C[C@@H]3CNC(=O)C2CC2)nc(-c2ccncc2)n1,inactive: -1.13%
22,COc1ccc(-c2cc([C@H]3CN4CC[C@H]3C[C@@H]4CNC(=O)C3CCC3)n(C)n2)cc1OC,inactive: -3.58%
23,CCOc1ccc(CC(=O)N2CCC3(CC2)c2nccn2-c2ccccc2CN3C)cc1,inactive: -1.24% [at 38.4 µM]

# As entered above.
# `CCC(CC)c1cc([C@H]2CN3CC[C@H]2C[C@@H]3CNC(=O)C2CC2)nc(-c2ccncc2)n1` – activity, negative = inhibition: inactive: -1.13%
# `CC[C@H]1CN2CC[C@H]1C[C@@H]2COC(=O)Nc1ccc(C(C)(C)C)cc1` – activity, negative = inhibition: inactive: 290%
# `CCOc1ccc(CC(=O)N2CCC3(CC2)c2nccn2-c2ccccc2CN3C)cc1` – activity, negative = inhibition: inactive: -1.24% [at 38.4 µM]
# `COc1ccc(-c2ccc(=O)n3c2[C@@H]2C[C@@H](CN(C(=O)C(C)(C)C)C2)C3)cc1` – activity, negative = inhibition: inactive: -1.51%

# Continued.

row,Compound,"activity, negative = inhibition"
1,CN(C)c1ccc(C(=O)NC[C@H]2C[C@@H]3CCN2C[C@@H]3CN2CCCCC2)cc1,inactive: -22.5%
2,CCC(CC)c1cc([C@H]2CN3CC[C@H]2C[C@@H]3CNC(=O)c2ccc(N(C)C)cc2)nc(-c2ccncc2)n1,inactive: 6.71% [at 38.4 µM]
3,O=C(NC1CC1)[C@H]1CN2CCC1C[C@@H]2Cn1cc(CSc2ccccc2)nn1 (stereo not given in full),inactive: 0.0308%
4,CN(C)Cc1cn(C[C@H]2C[C@@H]3CCN2C[C@@H]3C(=O)Nc2ccccc2)nn1,inactive: -0.783%
5,CSc1ccc(-c2ccc(=O)n3c2[C@@H]2C[C@@H](CN(S(C)(=O)=O)C2)C3)cc1,inactive: -21.1%
6,CC(=O)c1ccc(NC(=O)NC[C@H]2C[C@@H]3CCN2C[C@@H]3c2cc(-c3ccco3)nc(C)n2)cc1,inactive: 0.355% [at 38.4 µM]
7,CC(C)NC(=O)[C@H]1CN2CCC1C[C@@H]2Cn1cc(CN(C)Cc2ccccc2)nn1 (stereo not given in full),inactive: -0.154%
8,CCCCc1cn(C[C@H]2CC3CCN2C[C@@H]3C(=O)NCc2ccccc2)nn1 (stereo not given in full),inactive: -0.354%
9,CCN(CC)C[C@H]1CN2CC[C@H]1C[C@@H]2CNC(=O)Nc1ccccc1,inactive: 3.43%
10,O=C(c1cncnc1)N1C[C@@H]2C[C@H](C1)c1c(-c3ccc4ccccc4c3)ccc(=O)n1C2,inactive: -0.638%
11,COCCC(=O)N1[C@H]2CC[C@@H]1c1cnc(-c3ccccc3)nc1C2,inactive: 1.8% [at 38.4 µM]
12,Cc1ccccc1-c1ccc2n(c1=O)C[C@H]1C[C@@H]2CN(C(=O)NC2CCCCC2)C1,inactive: 1.63%
13,COCC1(CNC2CCN(C)CC2)C[C@@H](O)[C@@H](O)C1 (stereo not given in full),inactive: -9.03% [at 76.7 µM]
14,Cc1ccc2c(n1)N(C)[C@H](CO)CCN(CC(C)C)C2,inactive: -9.9% [at 76.7 µM]
15,Cc1ccc(C(=O)NC[C@H]2C[C@@H]3CCN2C[C@@H]3c2cc(-c3ccccc3)nn2C)cc1,inactive: 2.19%
16,CCCS(=O)(=O)NC[C@H]1C[C@@H]2CCN1C[C@@H]2c1cc(-c2ccccc2Br)nc(C)n1,inactive: -2.5% [at 38.4 µM]
17,COCCNC(=O)[C@H]1CN2CCC1C[C@@H]2Cn1cc(-c2cccc(N)c2)nn1 (stereo not given in full),inactive: -0.524%
18,COCC(=O)NC[C@H]1C[C@@H]2CCN1C[C@@H]2CN1CCC(C)CC1,inactive: -11.9%
19,CC[C@H]1CN2CC[C@H]1C[C@@H]2CNS(=O)(=O)c1cccc(C#N)c1,inactive: -1.45%
20,CN(C)Cc1ccccc1-c1ccc2n(c1=O)C[C@H]1C[C@@H]2CN(C(=O)c2cnccn2)C1,inactive: 0.328%
21,COCCNC(=O)[C@H]1CN2CCC1C[C@@H]2Cn1cc(-c2ccc(-c3ccccc3)cc2)nn1 (stereo not given in full),inactive: 0.288% [at 38.4 µM]
22,CC(=O)c1ccc(NC(=O)NC[C@H]2C[C@@H]3CCN2C[C@@H]3CN2CCC(Cc3ccccc3)CC2)cc1,inactive: 2.7% [at 38.4 µM]
